{"sequences": {"note": "By UniProt entry, the sequences of proteins in these tests, tags left out.", "UniProt P10275": "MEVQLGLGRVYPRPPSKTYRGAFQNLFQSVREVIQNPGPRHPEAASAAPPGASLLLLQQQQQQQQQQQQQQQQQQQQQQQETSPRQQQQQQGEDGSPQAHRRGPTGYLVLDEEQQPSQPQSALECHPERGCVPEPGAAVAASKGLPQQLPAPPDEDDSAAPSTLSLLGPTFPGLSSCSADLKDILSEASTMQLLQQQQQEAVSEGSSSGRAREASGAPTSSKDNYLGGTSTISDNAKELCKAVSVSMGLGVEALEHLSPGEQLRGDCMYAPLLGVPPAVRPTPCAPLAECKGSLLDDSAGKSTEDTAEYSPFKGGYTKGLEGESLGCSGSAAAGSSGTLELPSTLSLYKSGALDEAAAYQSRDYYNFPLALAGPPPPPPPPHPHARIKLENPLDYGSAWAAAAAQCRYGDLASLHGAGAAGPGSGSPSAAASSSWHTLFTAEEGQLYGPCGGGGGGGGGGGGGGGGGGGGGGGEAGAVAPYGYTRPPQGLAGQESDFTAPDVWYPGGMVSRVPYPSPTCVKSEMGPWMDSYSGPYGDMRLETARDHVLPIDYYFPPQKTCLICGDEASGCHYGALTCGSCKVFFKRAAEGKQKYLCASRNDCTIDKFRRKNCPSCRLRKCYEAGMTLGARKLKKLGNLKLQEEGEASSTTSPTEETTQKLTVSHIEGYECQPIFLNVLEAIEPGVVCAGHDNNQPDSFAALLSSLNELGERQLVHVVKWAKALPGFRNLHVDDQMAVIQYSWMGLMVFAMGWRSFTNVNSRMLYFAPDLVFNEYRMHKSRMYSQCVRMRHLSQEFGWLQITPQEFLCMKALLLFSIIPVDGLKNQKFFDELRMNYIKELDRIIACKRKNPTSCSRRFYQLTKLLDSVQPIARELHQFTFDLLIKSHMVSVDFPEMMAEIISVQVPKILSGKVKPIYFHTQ"}, "source": "patent US20190024185A1", "key": {"androgen receptor (AR) [1]": {"target": "androgen receptor (AR) (UniProt P10275)", "assay": "co-immunoprecipitation of endogenous nuclear proteins from LNCaP cells, Western blot"}, "androgen receptor (AR) [2]": {"target": "androgen receptor (AR) (UniProt P10275)", "assay": "co-immunoprecipitation from nuclear fraction, Western blot (FIG. 10, part B: endogenous, LNCaP)"}}, "note": "Results are given in words; binding and its absence hold for the method and conditions named. Binding seen in cells or lysates may run through a third protein. Some results given as binding are weak or reduced against the parent protein; the word gives no strength.", "data": [{"substance": "KDM5D (endogenous, in LNCaP cells) (from UniProt Q9BY66 1-1539) (enzyme)", "values": [{"measurement": "binding", "setting": "androgen receptor (AR) [1]", "result": "binds"}, {"measurement": "binding", "setting": "androgen receptor (AR) [2]", "result": "binds"}]}]}
